PubChem BioAssay AID1259254, NCATS | 2017
In all, the deposit lists about 59,000 reagents; shown is an unselected part. Over the whole deposit, about 1,550 (2.6%) got an active call. 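G2 share is only a proxy for re-replication; each gene was hit by three separate siRNAs, and active genes were retested.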 Raw values vary from plate to plate and are shown uncorrected. Reagents against one gene are numbered here. The record does not give: the amount of reagent.

Purpose: 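Gene knock-downs that lead to re-replication, shown by excess G2 DNA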 (primary screen)
Cell system: human HCT116 colorectal cancer cells
Knock-down reagent: single siRNA against human genes
Duration: 3 days
Detection: 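Imaged Hoechst DNA stain sorts each cell into a cycle phase by DNA amount; per plate, G2 fraction set to 0% for non-targeting and 100% for GMNN siRNA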
Direction: G2 robust z-score and G2 cells, % of GMNN control: higher = more G2 cells, more excess DNA replication; raw share of cells in G2: higher = larger share of cells with G2 DNA content
Rule for the call: 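An siRNA counts as active if its G2 robust z-score lies at least 5 MADs above the screen median; here such calls match roughly 38% of GMNN control or more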

| Gene | siRNA no. | G2 robust z-score | G2 cells, % of GMNN control | raw share of cells in G2 (%) | Call |
| --- | --- | --- | --- | --- | --- |
| HAUS6 (HAUS augmin like complex subunit 6) | 1 | 0.103 | 3.69 | 4.93 | inactive |
| HAUS6 (HAUS augmin like complex subunit 6) | 2 | 0.846 | 8.92 | 8.03 | inactive |
| HAUS6 (HAUS augmin like complex subunit 6) | 3 | 3.26 | 25.9 | 11.8 | inactive |
| TARBP1 (tRNA guanosine 2 -O-methyltransferase TARBP1) | 1 | 2.01 | 17.1 | 10.9 | inactive |
| TARBP1 (tRNA guanosine 2 -O-methyltransferase TARBP1) | 2 | -0.0498 | 2.62 | 5.68 | inactive |
| TARBP1 (tRNA guanosine 2 -O-methyltransferase TARBP1) | 3 | -1.25 | -5.85 | 2.2 | inactive |
| YTHDF1 (YTH N6-methyladenosine RNA binding protein F1) | 1 | 0.338 | 5.35 | 5.52 | inactive |
| YTHDF1 (YTH N6-methyladenosine RNA binding protein F1) | 2 | 0.581 | 7.06 | 7.24 | inactive |
| YTHDF1 (YTH N6-methyladenosine RNA binding protein F1) | 3 | 0.318 | 5.2 | 4.91 | inactive |
| SLC6A16 | 1 | 0.192 | 4.32 | 8.12 | inactive |
| SLC6A16 | 2 | 0.156 | 4.07 | 5.54 | inactive |
| SLC6A16 | 3 | 0.392 | 5.73 | 5.86 | inactive |
| ERN2 (endoplasmic reticulum to nucleus signaling 2) | 1 | 0.209 | 4.44 | 6.97 | inactive |
| ERN2 (endoplasmic reticulum to nucleus signaling 2) | 2 | 0.334 | 5.32 | 5.38 | inactive |
| ERN2 (endoplasmic reticulum to nucleus signaling 2) | 3 | -0.202 | 1.55 | 5.75 | inactive |
| DDC (dopa decarboxylase) | 1 | -0.751 | -2.32 | 4.13 | inactive |
| DDC (dopa decarboxylase) | 2 | 3.81 | 29.8 | 14.3 | inactive |
| DDC (dopa decarboxylase) | 3 | -0.226 | 1.38 | 5.5 | inactive |
| SCAP (SREBF chaperone) | 1 | -0.844 | -2.97 | 3.82 | inactive |
| SCAP (SREBF chaperone) | 2 | 5.59 | 42.3 | 21.6 | active |
| SCAP (SREBF chaperone) | 3 | -0.651 | -1.62 | 2.57 | inactive |
| GYG1 (glycogenin 1) | 1 | -0.655 | -1.64 | 4.45 | inactive |
| GYG1 (glycogenin 1) | 2 | 0.763 | 8.34 | 8.86 | inactive |
| GYG1 (glycogenin 1) | 3 | -0.949 | -3.71 | 2.84 | inactive |
| ETV5 (ETS variant transcription factor 5) | 1 | -0.534 | -0.792 | 3.15 | inactive |
| ETV5 (ETS variant transcription factor 5) | 2 | -0.401 | 0.144 | 4.91 | inactive |
| ETV5 (ETS variant transcription factor 5) | 3 | 6.16 | 46.3 | 19.9 | active |
| USP24 (ubiquitin specific peptidase 24) | 1 | -0.385 | 0.258 | 6.47 | inactive |
| USP24 (ubiquitin specific peptidase 24) | 2 | 2.23 | 18.7 | 10.4 | inactive |
| USP24 (ubiquitin specific peptidase 24) | 3 | 0.536 | 6.74 | 6.17 | inactive |
| SPIRE2 (spire type actin nucleation factor 2) | 1 | -0.594 | -1.21 | 3.76 | inactive |
| SPIRE2 (spire type actin nucleation factor 2) | 2 | -0.426 | -0.0331 | 4.77 | inactive |
| SPIRE2 (spire type actin nucleation factor 2) | 3 | 0.341 | 5.36 | 7.66 | inactive |
| ERICH6B (glutamate rich 6B) | 1 | 0.364 | 5.53 | 5.58 | inactive |
| ERICH6B (glutamate rich 6B) | 2 | -0.181 | 1.7 | 3.71 | inactive |
| ERICH6B (glutamate rich 6B) | 3 | 1.74 | 15.2 | 8.05 | inactive |
| CRYBB2 (crystallin beta B2) | 1 | 1.47 | 13.3 | 11.5 | inactive |
| CRYBB2 (crystallin beta B2) | 2 | -0.315 | 0.754 | 4.36 | inactive |
| CRYBB2 (crystallin beta B2) | 3 | 0.413 | 5.88 | 5.82 | inactive |
| TXNDC11 (thioredoxin domain containing 11) | 1 | -1.22 | -5.59 | 3.42 | inactive |
| TXNDC11 (thioredoxin domain containing 11) | 2 | 1.75 | 15.3 | 9.88 | inactive |
| TXNDC11 (thioredoxin domain containing 11) | 3 | -1.09 | -4.7 | 2 | inactive |
| POTED (POTE ankyrin domain family member D) | 1 | 0.223 | 4.54 | 5.55 | inactive |
| POTED (POTE ankyrin domain family member D) | 2 | -1.29 | -6.08 | 0.597 | inactive |
| POTED (POTE ankyrin domain family member D) | 3 | 0.425 | 5.96 | 6.59 | inactive |

Entries above whose gene name starts with P or p (3):
| Gene | siRNA no. | G2 robust z-score | G2 cells, % of GMNN control | raw share of cells in G2 (%) | Call |
| --- | --- | --- | --- | --- | --- |
| POTED (POTE ankyrin domain family member D) | 1 | 0.223 | 4.54 | 5.55 | inactive |
| POTED (POTE ankyrin domain family member D) | 2 | -1.29 | -6.08 | 0.597 | inactive |
| POTED (POTE ankyrin domain family member D) | 3 | 0.425 | 5.96 | 6.59 | inactive |

Additional records:
| Gene | siRNA no. | G2 robust z-score | G2 cells, % of GMNN control | raw share of cells in G2 (%) | Call |
| --- | --- | --- | --- | --- | --- |
| IGF2BP2 (insulin like growth factor 2 mRNA binding protein 2) | 1 | 0.829 | 8.8 | 9.52 | inactive |
| IGF2BP2 (insulin like growth factor 2 mRNA binding protein 2) | 2 | -1 | -4.07 | 2.53 | inactive |
| IGF2BP2 (insulin like growth factor 2 mRNA binding protein 2) | 3 | -0.843 | -2.96 | 5.31 | inactive |
| KCTD11 (potassium channel tetramerization domain containing 11) | 1 | 1.8 | 15.6 | 8.46 | inactive |
| KCTD11 (potassium channel tetramerization domain containing 11) | 2 | 0.672 | 7.7 | 5.84 | inactive |
| KCTD11 (potassium channel tetramerization domain containing 11) | 3 | 1.2 | 11.4 | 7.54 | inactive |
| ADGRF3 (adhesion G protein-coupled receptor F3) | 1 | -0.266 | 1.1 | 3.61 | inactive |
| ADGRF3 (adhesion G protein-coupled receptor F3) | 2 | 2.23 | 18.7 | 12.5 | inactive |
| ADGRF3 (adhesion G protein-coupled receptor F3) | 3 | -0.00704 | 2.92 | 5.54 | inactive |
| PAIP1 (poly(A) binding protein interacting protein 1) | 1 | -0.64 | -1.54 | 3.34 | inactive |
| PAIP1 (poly(A) binding protein interacting protein 1) | 2 | -0.356 | 0.464 | 5.9 | inactive |
| PAIP1 (poly(A) binding protein interacting protein 1) | 3 | 0.162 | 4.11 | 8.1 | inactive |
| RBP1 (retinol binding protein 1) | 1 | -1.31 | -6.28 | 2.06 | inactive |
| RBP1 (retinol binding protein 1) | 2 | 0.435 | 6.03 | 7.05 | inactive |
| RBP1 (retinol binding protein 1) | 3 | 0.0864 | 3.58 | 6.04 | inactive |
| TRIB2 (tribbles pseudokinase 2) | 1 | -0.294 | 0.896 | 5.87 | inactive |
| TRIB2 (tribbles pseudokinase 2) | 2 | -0.781 | -2.53 | 4.27 | inactive |
| TRIB2 (tribbles pseudokinase 2) | 3 | 2.43 | 20.1 | 10.1 | inactive |
| PSMD12 (proteasome 26S subunit, non-ATPase 12) | 1 | 2.21 | 18.5 | 10.8 | inactive |
| PSMD12 (proteasome 26S subunit, non-ATPase 12) | 2 | 0.453 | 6.15 | 7.73 | inactive |
| PSMD12 (proteasome 26S subunit, non-ATPase 12) | 3 | 0.396 | 5.75 | 5.2 | inactive |
| ZBTB3 (zinc finger and BTB domain containing 3) | 1 | -0.667 | -1.73 | 2.18 | inactive |
| ZBTB3 (zinc finger and BTB domain containing 3) | 2 | 0.207 | 4.42 | 7.91 | inactive |
| ZBTB3 (zinc finger and BTB domain containing 3) | 3 | 1.36 | 12.5 | 7.56 | inactive |
